Data as given in PubChem BioAssay AID504764 (Drosophila RNAi Screening Center, 2011).
In all, the deposit lists about 22,000 reagents; this is an unselected part of those that have a named target and a result. In the full data, 403 (1.9%) were called active. 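Unnormalised raw counts per well; ratio z-scores behind the hit calls and whether each hit raises or lowers signal are not deposited.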 Not stated in the record: the amount of reagent.

Assay: 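Genome-wide screen for regulators of Notch-driven gene expression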 (primary screen)
Cells: Drosophila Kc167 cells
Reagents: long dsRNA against Drosophila genes
Time to read-out: about 5 days (4 days dsRNA, then 24 h after transfection)
Challenge: transfection of constitutively active membrane-tethered Notch lacking the extracellular domain, read 24 h later
Detection: 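Light from a Notch-responsive E(spl)m3 luciferase reporter under active Notch, with control-promoter and no-Notch reporter wells to normalise; raw counts from paired wells a and b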
Direction: induced reporter light, run 1, well a and induced reporter light, run 1, well b: higher = more light from the Notch target reporter with active Notch; control promoter light, run 1, well a and control promoter light, run 1, well b: higher = more light from the viral control promoter (cell number, transfection, viability); uninduced reporter light, run 1, well a: higher = more light from the Notch target reporter without active Notch
Active means: 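Hit if the duplicate-averaged log2 ratio of induced to control-promoter light gives a plate-wise z beyond ±2, or induced to uninduced beyond ±1.8; weak-control or discordant-duplicate wells dropped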
Meaning of the calls: active = modifier hit (raised or lowered Notch signal); inactive = not a hit

gene | amplicon | induced reporter light, run 1, well a | induced reporter light, run 1, well b | control promoter light, run 1, well a | control promoter light, run 1, well b | uninduced reporter light, run 1, well a | outcome
CG8929 (GeneID 37306) | DRSC07298 | 1.09e5 | 1.30e5 | 1.91e5 | 1.83e5 | 9900 | inactive
sca (GeneID 36411) | DRSC07677 | 78550 | 76165 | 1.33e5 | 97530 | 8090 | inactive
CG9497 (GeneID 33884) | DRSC03234 | 95245 | 92630 | 75590 | 75130 | 5750 | inactive
Larp4B (GeneID 38399) | DRSC08192 | 41100 | 42095 | 63095 | 46615 | 3205 | inactive
Fit1 (GeneID 38488) | DRSC08450 | 1.44e5 | 1.23e5 | 1.21e5 | 41865 | 11515 | inactive
CG14961 (GeneID 38414) | DRSC08420 | 1.25e5 | 1.19e5 | 1.49e5 | 2.10e5 | 12535 | inactive
Tim9a (GeneID 32294) | DRSC19753 | 1.22e5 | 1.28e5 | 1.90e5 | 2.27e5 | 8095 | inactive
CG13058 (GeneID 39806) | DRSC09941 | 1.14e5 | 1.49e5 | 1.97e5 | 1.93e5 | 5910 | inactive
snRNP-U1-C (GeneID 42274) | DRSC15804 | 1.33e5 | 1.26e5 | 1.34e5 | 1.39e5 | 9310 | inactive
Hsc70-2 (GeneID 41609) | DRSC16710 | 2.18e5 | 2.40e5 | 1.94e5 | 1.72e5 | 18032 | inactive
stj (GeneID 36526) | DRSC06124 | 1.56e5 | 1.52e5 | 1.65e5 | 1.59e5 | 14145 | inactive
AgmNAT (GeneID 31512) | DRSC18072 | 1.75e5 | 1.54e5 | 3.58e5 | 2.98e5 | 10525 | inactive
Tpr2 (GeneID 34984) | DRSC03461 | 2.26e5 | 2.00e5 | 2.55e5 | 2.39e5 | 19300 | inactive
Gp150 (GeneID 37549) | DRSC04618 | 24210 | 39805 | 54730 | 73885 | 2815 | inactive
Pax (GeneID 35215) | DRSC01703 | 82270 | 66895 | 82030 | 48825 | 5970 | inactive
Pax (GeneID 35215) | DRSC02651 | 2.13e5 | 2.20e5 | 2.34e5 | 2.74e5 | 17980 | inactive
Pax (GeneID 35215) | DRSC02652 | 49715 | 32660 | 36130 | 42560 | 1942 | inactive
Son (GeneID 41159) | DRSC16400 | 77805 | 89340 | 80170 | 56920 | 5340 | inactive
CG13928 (GeneID 38195) | DRSC08397 | 1.68e5 | 1.20e5 | 2.09e5 | 2.16e5 | 7475 | inactive
Ugt37A1 (GeneID 35307) | DRSC02114 | 59560 | 45065 | 54800 | 53940 | 2942 | inactive
Usp7 (GeneID 32169) | DRSC18909 | 1.01e5 | 1.25e5 | 1.09e5 | 1.26e5 | 7465 | inactive
Usp7 (GeneID 32169) | DRSC19604 | 1.20e5 | 1.17e5 | 2.17e5 | 2.15e5 | 8515 | inactive
CG4942 (GeneID 39044) | DRSC10462 | 1.17e5 | 1.22e5 | 99200 | 57280 | 10050 | inactive
lqf (GeneID 38846) | DRSC11363 | 1.24e5 | 1.14e5 | 66535 | 35170 | 11830 | inactive
spn-E (GeneID 41919) | DRSC17064 | 2.02e5 | 2.33e5 | 1.96e5 | 2.19e5 | 18032 | inactive
Cyt-c1 (GeneID 38612) | DRSC10447 | 1.24e5 | 1.20e5 | 1.02e5 | 47620 | 9910 | inactive
nab (GeneID 3346237) | DRSC08455 | 2.09e5 | 1.45e5 | 3.30e5 | 2.31e5 | 11875 | inactive
nab (GeneID 3346237) | DRSC08456 | 97790 | 1.09e5 | 1.42e5 | 2.18e5 | 10100 | inactive
HDAC11 (GeneID 326120) | DRSC14280 | 1.57e5 | 1.45e5 | 1.70e5 | 1.58e5 | 11820 | inactive
ND-49 (GeneID 43798) | DRSC17151 | 31835 | 31220 | 34805 | 37035 | 2320 | inactive
luna (GeneID 2768719) | DRSC05253 | 1.73e5 | 1.64e5 | 2.14e5 | 2.72e5 | 15765 | inactive
luna (GeneID 2768719) | DRSC06663 | 8830 | 7605 | 10885 | 10010 | 2660 | inactive
luna (GeneID 2768719) | DRSC07336 | 1.90e5 | 1.62e5 | 2.19e5 | 2.13e5 | 14210 | inactive
scat (GeneID 47942) | DRSC02722 | 2.17e5 | 2.18e5 | 1.53e5 | 1.68e5 | 16365 | inactive
CG12868 (GeneID 36620) | DRSC06207 | 1.08e5 | 1.25e5 | 1.89e5 | 1.47e5 | 10385 | inactive
Cyp4ac3 (GeneID 33756) | DRSC03304 | 1.86e5 | 1.96e5 | 2.06e5 | 2.20e5 | 20145 | inactive
CG6310 (GeneID 39237) | DRSC10619 | 1.21e5 | 1.12e5 | 1.81e5 | 1.21e5 | 6945 | inactive
Hsp110 (GeneID 39557) | DRSC11186 | 1.10e5 | 97215 | 1.06e5 | 1.25e5 | 7910 | inactive
CG12436 (retired record) (GeneID 39838) | DRSC09869 | 3.32e5 | 2.50e5 | 3.90e5 | 3.05e5 | 11690 | inactive
CG12436 (retired record) (GeneID 39838) | DRSC09885 | 1.51e5 | 1.53e5 | 2.17e5 | 1.68e5 | 8880 | inactive
Socs36E (GeneID 35085) | DRSC02455 | 2.29e5 | 2.30e5 | 2.16e5 | 1.94e5 | 18315 | inactive
CG14265 (GeneID 31297) | DRSC18591 | 97740 | 1.09e5 | 1.43e5 | 1.24e5 | 6790 | inactive
CG34197 (retired record) (GeneID 5740455) | DRSC05791 | 77520 | 77880 | 1.30e5 | 1.40e5 | 8355 | inactive
mxt (GeneID 33686) | DRSC00551 | 1.08e5 | 1.03e5 | 97245 | 97985 | 13492 | inactive
CG2926 (GeneID 40676) | DRSC12321 | 76990 | 84450 | 60710 | 50395 | 9680 | inactive
CG9135 (GeneID 33850) | DRSC03144 | 1.55e5 | 1.90e5 | 1.68e5 | 1.98e5 | 16405 | inactive
SoxN (GeneID 44275) | DRSC03440 | 1.07e5 | 1.38e5 | 1.04e5 | 1.12e5 | 19070 | inactive
SoxN (GeneID 44275) | DRSC21779 | – | – | – | – | – | inactive
eIF4B (GeneID 3355041) | DRSC20983 | 92850 | 73130 | 88505 | 1.21e5 | 10332 | inactive
CG3407 (GeneID 33606) | DRSC00603 | 1.45e5 | 1.74e5 | 1.37e5 | 1.68e5 | 16280 | inactive
